# PubChem BioAssay AID1259254 | NCATS | 2017
# Purpose: 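Finding genes that stop cells copying their DNA twice in one cycle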 (primary screen)
# System: human HCT116 colorectal cancer cells
# Reagents: single siRNA against human genes
# Duration: 3 days
# Detection: 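Imaged Hoechst DNA stain sorts each cell into a cycle phase by DNA amount; per plate, G2 fraction set to 0% for non-targeting and 100% for GMNN siRNA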
# Direction: G2 robust z-score and G2 cells, % of GMNN control: higher = more G2 cells, more excess DNA replication; raw share of cells in G2: higher = larger share of cells with G2 DNA content
# Hit rule: 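Active siRNAs have a G2 robust z of 5 or more median absolute deviations over the median, which in these data means about 38% or higher of GMNN control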
# The whole screen tested about 59,000 reagents; below is a part drawn at random. About 1,550 of them (2.6%) were called active. 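G2 share is only a proxy for re-replication; each gene was hit by three separate siRNAs, and active genes were retested.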 Raw values vary from plate to plate and are shown uncorrected. Unmarked entries are inactive. Reagents against one gene are numbered here. The record does not give: the amount of reagent.
target gene,reagent,G2 robust z-score,"G2 cells, % of GMNN control",raw share of cells in G2 (%)
TET2,1,-0.967,-3.84,2.23
TET2,2,0.0698,3.46,5.73
TET2,3,1.58,14.1,7.86
TRPM3,1,-1.43,-7.1,1.6
TRPM3,2,-0.435,-0.094,5.25
TRPM3,3,0.542,6.78,7.07
SHMT1,1,12 (active),87.5,35.1
SHMT1,2,1.43,13,9
SHMT1,3,-0.585,-1.15,3.58
BLOC1S2,1,-0.0749,2.44,4.53
BLOC1S2,2,-0.518,-0.678,2.78
BLOC1S2,3,-0.713,-2.05,2.64
PRDM15,1,3.75,29.3,13.1
PRDM15,2,1.03,10.2,10.5
PRDM15,3,-0.0755,2.44,4.4
LARP1BP3,1,-0.527,-0.738,3.36
LARP1BP3,2,0.238,4.64,4.94
LARP1BP3,3,-0.152,1.9,3.7
ZG16,1,-0.968,-3.84,2.55
ZG16,2,0.384,5.67,5.02
ZG16,3,4.17,32.3,11.3
ZG16,4,-0.0116,2.89,4.58
ZG16,5,-0.491,-0.485,3
ZG16,6,-0.637,-1.51,2.33
SELP,1,3.22,25.6,14.3
SELP,2,-0.771,-2.46,3.7
SELP,3,1.42,13,8.25
RNF103,1,-0.804,-2.69,3.94
RNF103,2,-0.205,1.52,4.5
RNF103,3,-0.766,-2.42,2.49
OGFRL1,1,-0.471,-0.349,4.1
OGFRL1,2,0.883,9.18,9.45
OGFRL1,3,0.696,7.87,7.13
WDR93,1,6.77 (active),50.6,24.3
WDR93,2,-0.0812,2.4,5.6
WDR93,3,3.11,24.8,10.9
TMEM175,1,1.78,15.5,9.27
TMEM175,2,-0.915,-3.47,2.43
TMEM175,3,1.66,14.6,6.85
TCEAL1,1,0.0173,3.09,4.55
TCEAL1,2,2.3,19.1,14.5
TCEAL1,3,0.67,7.68,6.56
TRMT10C,1,-0.561,-0.982,4.09
TRMT10C,2,-0.0295,2.76,5.48
TRMT10C,3,-0.508,-0.607,6.16
MXD1,1,0.0635,3.41,4.82
MXD1,2,3.32,26.3,17.2
MXD1,3,1.08,10.5,6.93
TECR,1,0.0983,3.66,6.98
TECR,2,-0.537,-0.81,3.61
TECR,3,0.717,8.01,6.32
GPR153,1,-0.454,-0.226,4.07
GPR153,2,-1.07,-4.57,3.41
GPR153,3,-0.464,-0.301,4.56
GPR157,1,1.52,13.7,7.46
GPR157,2,2.09,17.7,12.2
GPR157,3,-0.808,-2.72,3.57
RPS16P10,1,0.0967,3.65,5.53
RPS16P10,2,-0.944,-3.68,1.98
RPS16P10,3,-0.161,1.84,3.84
WAC,1,-1.25,-5.8,1.53
WAC,2,-0.649,-1.6,3.6
WAC,3,-1.04,-4.35,1.76
GPM6B,1,-0.0898,2.34,6.4
GPM6B,2,-0.215,1.46,4.62
GPM6B,3,-0.87,-3.15,2.29
CALCR,1,0.561,6.91,8.31
CALCR,2,0.159,4.09,5.95
CALCR,3,-0.943,-3.67,2.14
CAGE1,1,0.184,4.26,5.2
CAGE1,2,-0.093,2.31,3.94
CAGE1,3,0.92,9.44,6.14
LINC00863,1,-1.08,-4.65,2.86
LINC00863,2,1.6,14.2,8.98
LINC00863,3,-0.294,0.896,3.87
UTP14A,1,4.8,36.7,21.6
UTP14A,2,0.687,7.8,6.36
UTP14A,3,0.995,9.97,10.4
PSORS1C2,1,-0.928,-3.56,2.33
PSORS1C2,2,1.89,16.3,8.42
PSORS1C2,3,-0.246,1.24,3.15
PSMB7,1,0.986,9.9,9.01
PSMB7,2,1.11,10.8,8.73
PSMB7,3,0.621,7.34,6.65
CASP10,1,2.01,17.1,11.5
CASP10,2,4.29,33.1,16.6
CASP10,3,-0.699,-1.95,3.18

Reagents above with an active call, once more:
target gene,reagent,G2 robust z-score,"G2 cells, % of GMNN control",raw share of cells in G2 (%)
SHMT1,1,12 (active),87.5,35.1
WDR93,1,6.77 (active),50.6,24.3
